The values that follow come from patent publication US20080124780A1, “Hybrid immobilized catalytic system with controlled permeability” (NORTHEASTERN UNIVERSITY, priority 2002, published 2008).

The subject of this data set is Horseradish peroxidase (HRP). Put plainly: Loading efficiency of HRP into Ca^2+-alginate beads (OPD assay). As to conditions: 10 μg/ml HRP.

Regarding Horseradish peroxidase [HRP], the “HRP entrapped (loading efficiency)” value runs as follows: (beads cross-linked for 5 minutes) “approximately 100%”; (beads cross-linked for 45 minutes) 42.8%.
